The text below walks through data of patent publication US10053447B2, “Fluorescent compounds” (Pierce Biotechnology, Inc, priority 2010, dated 2018).

Some compounds share one wording; it may come from a single statement.

This data set is described as follows: Compatibility with purification methods (gel filtration, dialysis, PDRR).
As for `COCCN1/C(=C/C=C/C=C/C=C/C2=[N+](CCCCCC(=O)ON3C(=O)CCC3=O)c3ccc(S(=O)(=O)[O-])cc3C2(C)CCCS(=O)(=O)O)C(C)(CCCS(=O)(=O)O)c2cc(S(=O)(=O)O)ccc21` (single isomer, unassigned) [755 Compound 1 (isomer 1)-NHS], the “Compatibility with purification methods” value was “compatible with gel filtration, dialysis, and PDRR”.
For the molecule `COCCN1/C(=C/C=C/C=C/C=C/C2=[N+](CCCCCC(=O)ON3C(=O)CCC3=O)c3ccc(S(=O)(=O)[O-])cc3C2(C)CCCS(=O)(=O)O)C(C)(CCCS(=O)(=O)O)c2cc(S(=O)(=O)O)ccc21` (single isomer, unassigned) [755 Compound 1 (isomer 2)-NHS], the “Compatibility with purification methods” value was “compatible with gel filtration, dialysis, and PDRR”.
In the case of `COCCN1/C(=C/C=C/C2=[N+](CCCCCC(=O)O)c3ccc(S(=O)(=O)[O-])cc3C2(C)CCCS(=O)(=O)O)C(C)(CCCS(=O)(=O)O)c2cc(S(=O)(=O)O)ccc21` (stereo not drawn) [550 Compound 1, 2-{(E)-3-[1-(5-carboxypentyl)-3-methyl-5-sulfo-3-(3-sulfopropyl)-1,3-dihydro-indol-(2E)-ylidene]-propenyl}-1-(2-methoxy-ethyl)-3-methyl-5-sulfo-3-(3-sulfo-propyl)-3H-indolium] it was “compatible with gel filtration and Pierce Dye Removal Resin (PDRR)”.
With `COCC[N+]1=C(/C=C/C=C/C=C2/N(CCCCCC(=O)O)c3ccc(S(=O)(=O)O)cc3C2(C)CCCS(=O)(=O)O)C(C)(CCCS(=O)(=O)O)c2cc(S(=O)(=O)O)ccc21.[Na+].[Na+].[Na+]` (stereo not drawn) [650 Compound 1, 2-{(1E,3E)-5-[1-(5-Carboxypentyl)-3-methyl-5-sulfo-3-(3-sulfopropyl)-1,3-dihydro-indol-(2E)-ylidene]-penta-1,3-dienyl}-1-(2-methoxy-ethyl)-3-methyl-5-sulfo-3-(3-sulfopropyl)-3H-indolium tri sodium salt], the “Compatibility with purification methods” value is “compatible with gel filtration and PDRR”.
As for `COCCOCC[N+]1=C(/C=C/C=C/C=C2/N(CCCCCC(=O)O)c3ccc(S(=O)(=O)O)cc3C2(C)CCCS(=O)(=O)O)C(C)(CCCS(=O)(=O)O)c2cc(S(=O)(=O)O)ccc21.[Na+].[Na+].[Na+]` (stereo not drawn) [650 Compound 2, 2-{(1E,3E)-5-[1-(5-carboxypentyl)-3-methyl-5-sulfo-3-(3-sulfopropyl)-1,3-dihydroindol-(2E)-ylidene]-penta-1,3-dienyl}-1-[2-(2-methoxy-ethoxy)-ethyl]-3-methyl-5-sulfo-3-(3-sulfopropyl)-3H-indolium tri sodium salt], the “Compatibility with purification methods” value was “compatible with gel filtration and PDRR”.
To `COCCOCCOCC[N+]1=C(/C=C/C=C/C=C2/N(CCCCCC(=O)O)c3ccc(S(=O)(=O)O)cc3C2(C)CCCS(=O)(=O)O)C(C)(CCCS(=O)(=O)O)c2cc(S(=O)(=O)O)ccc21.[Na+].[Na+].[Na+]` (stereo not drawn) [650 Compound 3, 2-{(1E,3E)-5-[1-(5-carboxypentyl)-3-methyl-5-sulfo-3-(3-sulfopropyl)-1,3-dihydro-indol-(2E)-ylidene]-penta-1,3-dienyl}-1-{2-[2-(2-methoxy-ethoxy)-ethoxy]-ethyl}-3-methyl-5-sulfo-3-(3-sulfopropyl)-3H-indolium tri sodium salt] belongs “compatible with gel filtration and PDRR”.
